Experimental findings from patent publication US7605133 are described below.

No constants are given. Whether binding was seen depends on the method and setting. Some binding calls cover weakened binding; strength is not graded here.

Assay [1] addresses C-terminal portion of α-synuclein (approx. amino acids 113-140) (human) (UniProt P37840). The assay is described as follows: phage display selection.
In assay [2] the target is NAC portion of α-synuclein (approx. amino acids 61-87) (human) (UniProt P37840). The assay is described as follows: phage display selection.

B1: TKHGPRK (peptide)
peptide: TKHGPRK
Turning to B1, the binding entry in assay [1] was “binds”.

B2: MMMMMRL (peptide)
peptide: MMMMMRL
B2: the binding entry in assay [2] is “binds”.

B3: HYAKNPI (peptide)
peptide: HYAKNPI
Turning to B3, the binding entry in assay [1] is listed as “binds”.

B4: ATINKSL (peptide)
peptide: ATINKSL
Consider B4, for which the binding entry in assay [1] is given as “binds”.

B5: WRQTRKD (peptide)
peptide: WRQTRKD
In the case of B5, the binding result in assay [1] was “binds”.

B6: THRLPSR (peptide)
peptide: THRLPSR
B6: in assay [1], the binding entry was “binds”.

B7: RRRGMAI (peptide)
peptide: RRRGMAI
For B7, the binding result in assay [1] was “binds”.
